Measurements taken from publication PMC8909324.
Where two headings read alike, the source gives them in different places. No constants are given. Whether binding was seen depends on the method and setting. In cells and extracts the contact can be indirect. Some results given as binding are weak or reduced against the parent protein; the word gives no strength. One block for each molecule: values may come before it.

The chains behind the UniProt entries cited, without tags or fusion partners. Residues count along the entry.
UniProt P08069, residues 31-1367: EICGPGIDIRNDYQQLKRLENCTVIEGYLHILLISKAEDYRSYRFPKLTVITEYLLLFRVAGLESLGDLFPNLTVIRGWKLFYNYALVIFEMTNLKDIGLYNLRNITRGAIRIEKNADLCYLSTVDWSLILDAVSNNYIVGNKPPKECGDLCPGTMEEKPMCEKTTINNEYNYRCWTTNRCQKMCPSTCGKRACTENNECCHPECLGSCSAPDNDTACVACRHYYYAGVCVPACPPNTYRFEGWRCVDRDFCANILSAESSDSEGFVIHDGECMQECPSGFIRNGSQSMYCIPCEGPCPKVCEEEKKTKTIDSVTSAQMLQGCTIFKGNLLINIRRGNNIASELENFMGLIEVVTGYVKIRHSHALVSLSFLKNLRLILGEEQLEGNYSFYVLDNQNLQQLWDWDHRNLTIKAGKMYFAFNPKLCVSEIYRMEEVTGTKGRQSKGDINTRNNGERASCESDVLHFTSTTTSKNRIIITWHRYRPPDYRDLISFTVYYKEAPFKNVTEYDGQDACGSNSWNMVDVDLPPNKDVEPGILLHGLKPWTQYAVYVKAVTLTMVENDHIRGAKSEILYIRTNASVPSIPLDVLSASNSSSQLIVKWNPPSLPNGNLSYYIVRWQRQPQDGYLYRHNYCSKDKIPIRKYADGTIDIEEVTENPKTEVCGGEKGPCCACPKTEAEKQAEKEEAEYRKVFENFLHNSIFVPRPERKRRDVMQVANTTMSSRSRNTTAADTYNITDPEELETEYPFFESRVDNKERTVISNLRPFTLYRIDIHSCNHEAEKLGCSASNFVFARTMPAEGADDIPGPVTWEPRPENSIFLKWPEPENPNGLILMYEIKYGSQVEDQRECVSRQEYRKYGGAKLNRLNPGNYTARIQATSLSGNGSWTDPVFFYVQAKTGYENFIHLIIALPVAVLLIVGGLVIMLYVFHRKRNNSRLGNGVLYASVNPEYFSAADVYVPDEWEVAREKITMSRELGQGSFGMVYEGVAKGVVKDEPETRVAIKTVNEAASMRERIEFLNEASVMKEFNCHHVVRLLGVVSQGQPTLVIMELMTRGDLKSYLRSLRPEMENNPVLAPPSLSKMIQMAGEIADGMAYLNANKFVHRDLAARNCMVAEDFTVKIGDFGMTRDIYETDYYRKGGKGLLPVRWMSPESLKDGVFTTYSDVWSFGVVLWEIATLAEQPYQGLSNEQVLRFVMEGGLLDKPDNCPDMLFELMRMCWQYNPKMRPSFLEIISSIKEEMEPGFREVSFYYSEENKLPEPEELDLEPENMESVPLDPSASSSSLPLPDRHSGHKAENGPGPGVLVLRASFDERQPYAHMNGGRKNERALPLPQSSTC
UniProt P63165, residues 1-97: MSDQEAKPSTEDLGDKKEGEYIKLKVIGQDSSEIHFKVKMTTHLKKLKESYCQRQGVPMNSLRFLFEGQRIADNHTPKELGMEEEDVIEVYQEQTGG

Key:
[1] = molecular target: Type I insulin-like growth factor receptor (human (endogenous in MG63)) (UniProt P08069); test: co-IP; MG63 cell extracts in RIPA buffer; anti-IGF-IR antibody overnight at 4 °C, then protein A/G agarose for 4 h at 4 °C; Western blot of the precipitate; cells kept in serum-free medium or treated with biglycan (10 μg/mL) for 48 h; for SUMO-1 also DMSO or AG1024 (10 μM)
[2] = molecular target: Type I insulin-like growth factor receptor (human (endogenous in MG63)) (UniProt P08069); test: as above; remark: listed apart in the source

binding [1]: binds
Molecule: Small ubiquitin-like modifier-1 (from UniProt P63165 1-97)

binding [2]: binds
B1: Biglycan (protein, UniProt P21810 38-368)
chain: DEEASGADTSGVLDPDSVTPTYSAMCPFGCHCHLRVVQCSDLGLKSVPKEISPDTTLLDLQNNDISELRKDDFKGLQHLYALVLVNNKISKIHEKAFSPLRKLQKLYISKNHLVEIPPNLPSSLVELRIHDNRIRKVPKGVFSGLRNMNCIEMGGNPLENSGFEPGAFDGLKLNYLRISEAKLTGIPKDLPETLNELHLDHNKIQAIELEDLLRYSKLYRLGLGHNQIRMIENGSLSFLPTLRELHLDNNKLARVPSGLPDLKLLQVVYLHSNNITKVGVNDFCPMGFGVKRAYYNGISLFNNPVPYWEVQPATFRCVTDRLAIQFGNYKK
